In patent publication US20170129926A1 (ABCLON, published 2017):
Where a chain is given by its changes, count along the chain named. Like-named read-outs stand apart in the source and are kept apart here. Blank lines part the entries; values can stand above or below the binder they belong to.

Protein sequences, listed by entry. Tags and fused reporters are not part of them. Residues count along the entry.
UniProt P05231, 30-212 limits assumed: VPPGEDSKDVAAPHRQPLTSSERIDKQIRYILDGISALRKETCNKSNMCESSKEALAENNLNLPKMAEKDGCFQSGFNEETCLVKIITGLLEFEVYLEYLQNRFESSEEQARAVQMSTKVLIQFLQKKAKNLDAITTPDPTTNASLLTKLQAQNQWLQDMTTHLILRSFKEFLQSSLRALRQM

Experiments:
human IL-6 [1] = molecular target: T1, human IL-6 (human, UniProt P05231 30-212); assay: ELISA, captured Z-ABD, biotin-hIL-6 titrated
T1 construct: recombinant, bought (Peprotech 200-06; R&D Systems 206-IL/CF); biotinylated in the ELISAs; also called hIL-6; rhIL-6

human IL-6 [2] = molecular target: T1, human IL-6; assay: ELISA, captured Z-ABD, biotin-hIL-6 titrated; remark: listed apart in the source

B1: Z06814 (designed binder)
chain: AQHDEALEVDAKYAKEEQRAWREIHLLPNLTIEQMAAFIWKLLDDPSQSSELLSEAKKLNDSQAPKVDYVLAEAKVLANRELDKYGVSDYYKNLINNAKTVEGVKALIDEILAALPYVPG
notes: domain: GA3; periplasmic ABD fusion
EC50 (human IL-6 [1]): 0.29 nM
EC50 (human IL-6 [2]): 0.32 nM

B5: Z14746 (designed binder)
chain: B1 chain with Q18R, R19A, R22T, I32V, W40T, L43F
notes: as for B1
EC50 (human IL-6 [2]): 0.28 nM

B6: Z14722 (designed binder)
chain: B1 chain with Q18A, R19V, R22K, L26I, I32V, E33S, W40T, L43F
notes: as for B1
EC50 (human IL-6 [2]): 0.32 nM

B10: Z14673 (designed binder)
chain: B1 chain with Q18Y, R19H, R22M, I32V, E33S, W40T, L43F
notes: as for B1
EC50 (human IL-6 [2]): 0.23 nM

B12: Z14645 (designed binder)
chain: B1 chain with Q18K, R19D, R22Y, I32V, M35I, W40T, L43F
notes: as for B1
EC50 (human IL-6 [2]): 0.25 nM

B13: Z14788 (designed binder)
chain: B1 chain with Q18K, R19A, R22N, L26K, I32V, E33D, W40T, L43F
notes: as for B1
EC50 (human IL-6 [2]): 0.3 nM

B16: Z14765 (designed binder)
chain: B1 chain with Q18R, R19M, R22Y, L26T, I32V, W40T, L43F
notes: as for B1
EC50 (human IL-6 [2]): 0.27 nM

B17: Z14782 (designed binder)
chain: B1 chain with Q18A, R19K, R22M, E33D, W40T, L43F
notes: as for B1
EC50 (human IL-6 [2]): 0.24 nM

B23: Z14784 (designed binder)
chain: B1 chain with Q18K, R19H, R22M, L26K, I32V, E33D, W40T, L43F
notes: as for B1
EC50 (human IL-6 [2]): 0.25 nM

B25: Z15003 (designed binder)
chain: B1 chain with Q18Y, R19K, R22L, L26N, I32V, E33D, W40T, L43F
notes: as for B1
EC50 (human IL-6 [2]): 0.3 nM

B26: Z14706 (designed binder)
chain: B1 chain with Q18A, R19F, R22K, E33D, W40T, L43F
notes: as for B1
EC50 (human IL-6 [2]): 0.23 nM

B27: Z14829 (designed binder)
chain: B1 chain with Q18R, R19K, R22V, L26N, I32V, E33D, W40T, L43F
notes: as for B1
EC50 (human IL-6 [2]): 0.27 nM

B30: Z15111 (designed binder)
chain: B1 chain with Q18A, R22T, I32V, E33D, W40T, L43F
notes: as for B1
EC50 (human IL-6 [2]): 0.23 nM

B31: Z14712 (designed binder)
chain: B1 chain with Q18Y, R19L, R22N, L26K, I32V, E33D, W40T, L43F
notes: as for B1
EC50 (human IL-6 [2]): 0.26 nM

B33: Z14868 (designed binder)
chain: B1 chain with Q18Y, R19E, R22Y, E33Q, W40S, L43F
notes: as for B1
EC50 (human IL-6 [2]): 0.28 nM

B34: Z14990 (designed binder)
chain: B1 chain with Q18Y, R19D, R22Y, L26T, I32V, E33D, W40S, L43F
notes: as for B1
EC50 (human IL-6 [2]): 0.25 nM

B35: Z14861 (designed binder)
chain: B1 chain with Q18R, R19K, R22I, L26N, E33D, W40T, L43F
notes: as for B1
EC50 (human IL-6 [2]): 0.23 nM

B36: Z14992 (designed binder)
chain: B1 chain with Q18R, R19N, R22T, W40T, L43F
notes: as for B1
EC50 (human IL-6 [2]): 0.28 nM

B37: Z14651 (designed binder)
chain: B1 chain with Q18K, R19H, R22H, L26I, I32V, W40T, L43F
notes: as for B1
EC50 (human IL-6 [2]): 0.24 nM

B39: Z14662 (designed binder)
chain: B1 chain with Q18K, R19A, R22F, L26A, I32V, M35V, W40T, L43F
notes: as for B1
EC50 (human IL-6 [2]): 0.27 nM

B40: Z14767 (designed binder)
chain: B1 chain with Q18H, R19H, I32V, E33D, W40T, L43F
notes: as for B1
EC50 (human IL-6 [2]): 0.24 nM

B41: Z15141 (designed binder)
chain: B1 chain with Q18Y, R19E, R22V, L26N, E33T, W40T, L43F
notes: as for B1
EC50 (human IL-6 [2]): 0.23 nM

B42: Z15053 (designed binder)
chain: B1 chain with Q18K, R19Q, R22V, L26N, E33T, W40T, L43F
notes: as for B1
EC50 (human IL-6 [2]): 0.24 nM

B46: Z15057 (designed binder)
chain: B1 chain with R22Y, L26I, E33D, W40T, L43F
notes: as for B1
EC50 (human IL-6 [2]): 0.23 nM

B47: Z15024 (designed binder)
chain: B1 chain with Q18Y, R19E, R22M, I32V, M35I, W40T, L43F
notes: as for B1
EC50 (human IL-6 [2]): 0.31 nM

B49: Z14867 (designed binder)
chain: B1 chain with Q18A, R19I, R22H, L26V, I32V, E33D, M35I, W40T, L43F
notes: as for B1
EC50 (human IL-6 [2]): 0.26 nM

B50: Z11632 (designed binder)
chain: B1 chain with Q18R, R19E, R22F, L26T, I32V, E33S, W40S, L43F
notes: as for B1
EC50 (human IL-6 [1]): 0.19 nM
EC50 (human IL-6 [2]): 0.25 nM

B51: Z14783 (designed binder)
chain: B1 chain with Q18K, R19A, R22Y, I32V, E33D, M35I, W40T, L43F
notes: as for B1
EC50 (human IL-6 [2]): 0.24 nM

B52: Z15042 (designed binder)
chain: B1 chain with Q18Y, R19F, R22W, L26K, I32V, E33N, W40T, L43F
notes: as for B1
EC50 (human IL-6 [2]): 0.22 nM

B53: Z14878 (designed binder)
chain: B1 chain with Q18Y, R19H, R22V, L26N, E33D, W40T, L43F
notes: as for B1
EC50 (human IL-6 [2]): 0.29 nM

B54: Z15097 (designed binder)
chain: B1 chain with Q18A, R22H, L26I, E33D, W40T, L43F
notes: as for B1
EC50 (human IL-6 [2]): 0.22 nM

B56: Z15036 (designed binder)
chain: B1 chain with Q18Y, R19E, R22F, L26A, I32V, W40T, L43F
notes: as for B1
EC50 (human IL-6 [2]): 0.24 nM

B57: Z15145 (designed binder)
chain: B1 chain with Q18Y, R19K, R22H, L26I, I32V, E33D, W40T, L43F
notes: as for B1
EC50 (human IL-6 [2]): 0.23 nM

B58: Z14700 (designed binder)
chain: B1 chain with Q18R, R19H, R22F, L26K, I32V, E33D, W40T, L43F
notes: as for B1
EC50 (human IL-6 [2]): 0.24 nM

B60: Z15067 (designed binder)
chain: B1 chain with Q18A, L26A, E33D, W40T, L43F
notes: as for B1
EC50 (human IL-6 [2]): 0.22 nM

B61: Z14710 (designed binder)
chain: B1 chain with Q18Y, R19E, R22Y, I32V, E33S, M35I, W40T, L43F
notes: as for B1
EC50 (human IL-6 [2]): 0.26 nM

The remaining lines, values ahead:

EC50 (human IL-6 [2]): 0.22 nM
B2: Z14888 (designed binder)
chain: B1 chain with Q18A, R19F, E33D, W40T, L43F
notes: as for B1

EC50 (human IL-6 [2]): 0.22 nM
B3: Z14720 (designed binder)
chain: B1 chain with Q18Y, R19Y, R22W, L26K, I32V, E33D, W40T, L43F
notes: as for B1

EC50 (human IL-6 [2]): 0.21 nM
B4: Z14929 (designed binder)
chain: B1 chain with Q18K, R19E, R22Y, I32V, E33S, W40T, L43F
notes: as for B1

EC50 (human IL-6 [2]): 0.21 nM
B7: Z15079 (designed binder)
chain: B1 chain with Q18R, R19Y, R22N, L26K, I32V, E33D, W40T, L43F
notes: as for B1

EC50 (human IL-6 [2]): 0.21 nM
B8: Z15031 (designed binder)
chain: B1 chain with Q18A, R19Y, R22K, I32V, E33D, W40T, L43F
notes: as for B1

EC50 (human IL-6 [2]): 0.21 nM
B9: Z15025 (designed binder)
chain: B1 chain with Q18R, R19D, R22F, L26K, I32V, E33D, W40T, L43F
notes: as for B1

EC50 (human IL-6 [2]): 0.15 nM
B11: Z15126 (designed binder)
chain: B1 chain with Q18R, R19N, R22Y, I32V, W40T, L43F
notes: as for B1

EC50 (human IL-6 [2]): 0.2 nM
B14: Z15110 (designed binder)
chain: B1 chain with Q18R, R22T, L26S, E33D, W40T, L43F
notes: as for B1

EC50 (human IL-6 [2]): 0.21 nM
B15: Z15129 (designed binder)
chain: B1 chain with Q18R, R19E, R22F, L26I, E33D, W40T, L43F
notes: as for B1

EC50 (human IL-6 [2]): 0.18 nM
B18: Z15162 (designed binder)
chain: B1 chain with Q18K, R19I, R22Y, I32V, E33N, M35I, W40T, L43F
notes: as for B1

EC50 (human IL-6 [2]): 0.21 nM
B19: Z15140 (designed binder)
chain: B1 chain with Q18Y, R19E, R22T, W40T, L43F
notes: as for B1

EC50 (human IL-6 [2]): 0.21 nM
B20: Z15102 (designed binder)
chain: B1 chain with Q18K, R19K, R22Y, W40T, L43F
notes: as for B1

EC50 (human IL-6 [2]): 0.22 nM
B21: Z15082 (designed binder)
chain: B1 chain with Q18A, R19K, R22Y, L26I, I32V, E33D, M35I, W40T, L43F
notes: as for B1

EC50 (human IL-6 [2]): 0.2 nM
B22: Z15164 (designed binder)
chain: B1 chain with Q18A, R19Y, R22K, W40S, L43F
notes: as for B1

EC50 (human IL-6 [2]): 0.16 nM
B24: Z14976 (designed binder)
chain: B1 chain with Q18R, R19K, R22Y, I32V, W40T, L43F
notes: as for B1

EC50 (human IL-6 [2]): 0.22 nM
B28: Z14862 (designed binder)
chain: B1 chain with Q18A, R19A, E33D, W40T, L43F
notes: as for B1

EC50 (human IL-6 [2]): 0.16 nM
B29: Z15142 (designed binder)
chain: B1 chain with Q18R, R19M, R22Y, L26S, I32V, E33D, W40T, L43F
notes: as for B1

EC50 (human IL-6 [2]): 0.18 nM
B32: Z15015 (designed binder)
chain: B1 chain with Q18R, R19D, R22W, L26A, I32V, W40T, L43F
notes: as for B1

EC50 (human IL-6 [2]): 0.19 nM
B38: Z14944 (designed binder)
chain: B1 chain with Q18R, R19K, R22Y, E33D, W40T, L43F
notes: as for B1

EC50 (human IL-6 [2]): 0.21 nM
B43: Z15117 (designed binder)
chain: B1 chain with Q18R, R19S, R22M, I32V, E33D, W40T, L43F
notes: as for B1

EC50 (human IL-6 [2]): 0.21 nM
B44: Z14731 (designed binder)
chain: B1 chain with Q18K, R19A, R22Y, W40S, L43F
notes: as for B1

EC50 (human IL-6 [2]): 0.16 nM
B45: Z14984 (designed binder)
chain: B1 chain with Q18K, R19Q, E33D, W40T, L43F
notes: as for B1

EC50 (human IL-6 [2]): 0.18 nM
B48: Z15159 (designed binder)
chain: B1 chain with Q18Y, R19K, R22V, I32V, E33D, M35I, W40T, L43F
notes: as for B1

EC50 (human IL-6 [2]): 0.19 nM
B55: Z15151 (designed binder)
chain: B1 chain with Q18R, R19E, R22M, E33D, W40T, L43F
notes: as for B1

EC50 (human IL-6 [2]): 0.17 nM
B59: Z15122 (designed binder)
chain: B1 chain with Q18R, R19H, R22Y, E33D, W40S, L43F
notes: as for B1
